In this experiment the target is Dbf4-Dependent Kinase (DDK) (yeast) (UniProt P06243+P32325). Description: pull-down; the paper calls it Co-IP: 100 nM INO80 and 150 nM DDK incubated 1 h in 100 mM potassium-glutamate, 25 mM HEPES-KOH pH 7.6, 10 mM Mg(OAc)2, 0.02% NP-40, 1 mM DTT, 10 mM ATP; bound to calmodulin affinity resin with 2 mM CaCl2 at room temperature; eluted with 3 mM EGTA; immunoblot with anti-FLAG and anti-CBP; both purified.

Sequences of proteins named here, by UniProt entry; tags and fusion partners are left off. A change or cut given only in a name is not applied to a line headed by its entry.
UniProt P06243: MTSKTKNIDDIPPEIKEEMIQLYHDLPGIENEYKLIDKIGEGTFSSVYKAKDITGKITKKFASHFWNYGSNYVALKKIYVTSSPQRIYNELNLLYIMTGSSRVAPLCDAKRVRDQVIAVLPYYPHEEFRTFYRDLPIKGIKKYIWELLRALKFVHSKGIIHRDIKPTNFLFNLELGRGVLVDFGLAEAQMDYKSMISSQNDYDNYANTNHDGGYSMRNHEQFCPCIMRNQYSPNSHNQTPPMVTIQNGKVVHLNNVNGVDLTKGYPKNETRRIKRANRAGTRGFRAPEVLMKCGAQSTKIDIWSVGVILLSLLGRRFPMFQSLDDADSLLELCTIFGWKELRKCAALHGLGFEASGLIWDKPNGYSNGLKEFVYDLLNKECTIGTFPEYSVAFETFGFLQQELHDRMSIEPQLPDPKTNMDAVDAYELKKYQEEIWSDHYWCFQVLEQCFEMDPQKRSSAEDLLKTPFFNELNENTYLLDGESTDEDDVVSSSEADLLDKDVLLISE
UniProt P32325: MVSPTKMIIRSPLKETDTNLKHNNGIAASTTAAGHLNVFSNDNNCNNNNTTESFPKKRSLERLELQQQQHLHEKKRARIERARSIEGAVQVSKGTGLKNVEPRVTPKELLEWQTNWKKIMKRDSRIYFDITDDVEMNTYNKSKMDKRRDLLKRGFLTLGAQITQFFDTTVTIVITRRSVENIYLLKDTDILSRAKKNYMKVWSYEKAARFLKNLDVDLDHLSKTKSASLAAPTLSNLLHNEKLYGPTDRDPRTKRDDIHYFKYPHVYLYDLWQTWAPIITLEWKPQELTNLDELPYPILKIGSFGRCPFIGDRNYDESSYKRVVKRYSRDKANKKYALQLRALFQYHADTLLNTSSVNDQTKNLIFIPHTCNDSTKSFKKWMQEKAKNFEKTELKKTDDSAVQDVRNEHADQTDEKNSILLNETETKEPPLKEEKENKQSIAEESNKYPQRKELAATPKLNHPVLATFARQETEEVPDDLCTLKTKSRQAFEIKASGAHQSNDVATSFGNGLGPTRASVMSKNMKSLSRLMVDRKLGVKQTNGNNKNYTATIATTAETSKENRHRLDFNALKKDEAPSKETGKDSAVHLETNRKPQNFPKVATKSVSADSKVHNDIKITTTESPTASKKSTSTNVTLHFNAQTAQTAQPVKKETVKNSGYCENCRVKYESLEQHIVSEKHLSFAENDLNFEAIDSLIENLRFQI
UniProt P53115: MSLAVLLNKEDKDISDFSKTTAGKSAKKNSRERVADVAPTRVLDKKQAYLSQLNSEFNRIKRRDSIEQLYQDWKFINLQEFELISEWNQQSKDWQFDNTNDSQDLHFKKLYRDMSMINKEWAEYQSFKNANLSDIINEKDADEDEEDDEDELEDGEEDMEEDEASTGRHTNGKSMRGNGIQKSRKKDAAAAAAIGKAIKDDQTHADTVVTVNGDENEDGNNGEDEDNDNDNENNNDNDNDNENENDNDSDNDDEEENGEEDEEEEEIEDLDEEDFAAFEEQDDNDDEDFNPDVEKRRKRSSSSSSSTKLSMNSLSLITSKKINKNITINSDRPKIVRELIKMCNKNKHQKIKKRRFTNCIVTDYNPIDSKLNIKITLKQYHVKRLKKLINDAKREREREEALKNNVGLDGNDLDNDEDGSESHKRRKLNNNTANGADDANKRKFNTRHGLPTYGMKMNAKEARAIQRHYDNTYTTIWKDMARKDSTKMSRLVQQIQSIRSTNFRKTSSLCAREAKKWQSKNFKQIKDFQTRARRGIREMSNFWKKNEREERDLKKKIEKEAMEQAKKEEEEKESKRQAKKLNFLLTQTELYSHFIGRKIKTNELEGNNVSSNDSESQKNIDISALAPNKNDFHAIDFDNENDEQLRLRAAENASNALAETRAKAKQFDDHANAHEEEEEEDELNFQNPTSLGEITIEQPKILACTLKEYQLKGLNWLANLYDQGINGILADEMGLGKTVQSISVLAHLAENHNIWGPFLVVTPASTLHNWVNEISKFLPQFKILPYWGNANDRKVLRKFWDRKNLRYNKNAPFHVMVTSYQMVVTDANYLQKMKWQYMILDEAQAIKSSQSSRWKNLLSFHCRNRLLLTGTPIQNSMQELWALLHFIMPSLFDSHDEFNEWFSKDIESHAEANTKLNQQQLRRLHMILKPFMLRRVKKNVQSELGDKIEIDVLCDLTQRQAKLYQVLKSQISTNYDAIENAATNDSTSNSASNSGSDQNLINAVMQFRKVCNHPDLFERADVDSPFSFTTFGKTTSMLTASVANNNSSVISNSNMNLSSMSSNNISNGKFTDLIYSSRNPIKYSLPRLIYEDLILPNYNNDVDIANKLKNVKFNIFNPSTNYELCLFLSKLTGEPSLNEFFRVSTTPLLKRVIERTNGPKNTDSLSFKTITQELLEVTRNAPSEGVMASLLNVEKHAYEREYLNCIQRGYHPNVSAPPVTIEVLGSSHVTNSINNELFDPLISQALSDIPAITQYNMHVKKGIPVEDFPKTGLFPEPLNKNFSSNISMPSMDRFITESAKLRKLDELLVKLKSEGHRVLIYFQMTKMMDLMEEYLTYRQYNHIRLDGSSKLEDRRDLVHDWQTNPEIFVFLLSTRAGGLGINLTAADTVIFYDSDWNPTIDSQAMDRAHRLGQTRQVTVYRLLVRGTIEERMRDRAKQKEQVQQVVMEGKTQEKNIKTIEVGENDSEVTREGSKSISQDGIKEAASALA

These are yes or no findings as the source states them, for the method shown. Some results given as binding are weak or reduced against the parent protein; the word gives no strength.

Consider “INO80 chromatin remodelling complex (wild type) (from UniProt P53115 1-1489; Q03435 1-203; P43579 1-692; Q12345 1-250; P40060 1-125; P80428 1-489; Q12386 1-881; P60010 1-375; P35189 1-244; Q08561 1-116; Q03940 1-463; Q12464 1-471; P53946 1-755; P40154 1-320; P32617 1-166)”, for which the binding result was “binds”.

These data come from publication PMC13035910, “Dbf4-dependent kinase finetunes Ino80 function at chromosome replication origins” (Nature Communications, 2026).
